What all share (test): pull-down; PC3 cells co-transfected with biotinylation-consensus-tagged receptor, BirA and HA-HIF-1α or HA-HIF-2α; extract in NETN (20 mM Tris pH 8.0, 100 mM NaCl, 1 mM EDTA, 0.5% Nonidet P-40); biotinylated receptors held on streptavidin magnetic beads for 2 hours in the cold room, 3 x 10 min washes; HIF detected by Western blot (the legend calls it co-immunoprecipitation)
For assay [1], the target named is estrogen receptor β2 (B7TEV-ERβ2) (UniProt Q92731).
The target in assay [2] is estrogen receptor β1 (B7TEV-ERβ1) (UniProt Q92731).
Assay [3] has as its target estrogen receptor α (B7TEV-ERα) (UniProt P03372).

Amino acid sequences for entries named in this document (tags omitted). A change or cut given only in a name is not applied to a line headed by its entry. Chains listed by the source or under a name are the forms on record and can include a tag or linker.
UniProt Q92731: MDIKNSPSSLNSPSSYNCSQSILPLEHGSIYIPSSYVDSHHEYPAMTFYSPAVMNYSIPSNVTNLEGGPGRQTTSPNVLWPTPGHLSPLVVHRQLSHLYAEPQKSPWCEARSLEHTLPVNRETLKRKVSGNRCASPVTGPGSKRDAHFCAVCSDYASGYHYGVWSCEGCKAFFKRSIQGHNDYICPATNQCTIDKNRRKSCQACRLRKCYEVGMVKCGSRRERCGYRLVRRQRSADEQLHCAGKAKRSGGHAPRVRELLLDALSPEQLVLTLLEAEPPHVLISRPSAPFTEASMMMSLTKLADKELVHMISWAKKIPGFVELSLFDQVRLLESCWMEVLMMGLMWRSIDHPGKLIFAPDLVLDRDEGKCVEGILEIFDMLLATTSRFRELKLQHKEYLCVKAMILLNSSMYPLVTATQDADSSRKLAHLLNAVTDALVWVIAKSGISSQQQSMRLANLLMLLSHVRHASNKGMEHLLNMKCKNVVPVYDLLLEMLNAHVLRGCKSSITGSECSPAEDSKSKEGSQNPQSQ
estrogen receptor β2 (B7TEV-ERβ2) (Q92731, form named): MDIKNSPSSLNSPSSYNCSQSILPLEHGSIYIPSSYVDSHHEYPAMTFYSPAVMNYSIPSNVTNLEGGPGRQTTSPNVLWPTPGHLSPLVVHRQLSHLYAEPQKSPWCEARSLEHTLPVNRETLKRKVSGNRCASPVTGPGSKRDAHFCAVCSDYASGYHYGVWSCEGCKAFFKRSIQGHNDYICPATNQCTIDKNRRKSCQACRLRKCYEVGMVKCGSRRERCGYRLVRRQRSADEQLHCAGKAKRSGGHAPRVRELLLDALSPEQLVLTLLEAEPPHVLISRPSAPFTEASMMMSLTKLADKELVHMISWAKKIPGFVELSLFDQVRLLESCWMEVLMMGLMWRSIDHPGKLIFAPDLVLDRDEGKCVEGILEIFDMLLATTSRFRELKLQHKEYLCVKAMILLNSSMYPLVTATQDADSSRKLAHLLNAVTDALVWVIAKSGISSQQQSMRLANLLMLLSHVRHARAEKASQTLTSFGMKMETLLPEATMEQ
UniProt P03372: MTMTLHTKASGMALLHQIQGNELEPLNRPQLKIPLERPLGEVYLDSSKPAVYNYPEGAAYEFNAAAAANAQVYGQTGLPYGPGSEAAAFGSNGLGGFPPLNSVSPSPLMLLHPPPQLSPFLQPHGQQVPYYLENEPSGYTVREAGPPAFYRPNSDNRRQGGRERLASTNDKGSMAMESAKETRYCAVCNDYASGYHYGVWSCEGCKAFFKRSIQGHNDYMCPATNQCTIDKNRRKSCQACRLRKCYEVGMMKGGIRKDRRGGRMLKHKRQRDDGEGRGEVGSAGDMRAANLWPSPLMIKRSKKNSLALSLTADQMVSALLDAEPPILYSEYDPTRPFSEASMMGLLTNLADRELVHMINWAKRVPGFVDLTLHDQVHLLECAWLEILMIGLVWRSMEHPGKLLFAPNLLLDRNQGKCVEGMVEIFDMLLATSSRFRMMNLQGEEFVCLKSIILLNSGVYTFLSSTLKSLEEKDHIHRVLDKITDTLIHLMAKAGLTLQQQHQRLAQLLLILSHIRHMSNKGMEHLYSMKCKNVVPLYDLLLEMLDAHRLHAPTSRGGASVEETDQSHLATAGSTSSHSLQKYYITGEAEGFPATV
UniProt Q16665: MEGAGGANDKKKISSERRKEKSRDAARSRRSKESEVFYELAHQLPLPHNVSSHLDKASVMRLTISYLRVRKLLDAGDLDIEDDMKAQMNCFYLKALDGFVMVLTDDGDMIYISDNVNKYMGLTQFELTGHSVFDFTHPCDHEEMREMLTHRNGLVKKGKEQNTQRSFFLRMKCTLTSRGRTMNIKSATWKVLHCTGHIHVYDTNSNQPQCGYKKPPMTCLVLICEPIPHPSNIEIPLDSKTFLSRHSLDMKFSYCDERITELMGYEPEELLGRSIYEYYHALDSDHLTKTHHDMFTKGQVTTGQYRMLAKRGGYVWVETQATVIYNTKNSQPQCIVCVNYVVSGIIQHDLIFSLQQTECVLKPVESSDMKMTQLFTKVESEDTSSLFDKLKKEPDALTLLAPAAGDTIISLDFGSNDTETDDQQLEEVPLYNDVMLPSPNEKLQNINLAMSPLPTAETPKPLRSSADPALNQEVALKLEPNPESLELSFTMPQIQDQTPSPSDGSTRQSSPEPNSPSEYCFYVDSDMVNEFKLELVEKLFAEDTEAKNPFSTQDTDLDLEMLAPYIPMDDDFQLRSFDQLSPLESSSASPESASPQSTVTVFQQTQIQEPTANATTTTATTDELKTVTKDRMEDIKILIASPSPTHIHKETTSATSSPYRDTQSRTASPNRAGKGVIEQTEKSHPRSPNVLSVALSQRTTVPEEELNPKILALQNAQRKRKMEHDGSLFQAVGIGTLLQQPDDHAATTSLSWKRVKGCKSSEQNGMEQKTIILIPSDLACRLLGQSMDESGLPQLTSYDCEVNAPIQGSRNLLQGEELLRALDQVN
UniProt Q99814: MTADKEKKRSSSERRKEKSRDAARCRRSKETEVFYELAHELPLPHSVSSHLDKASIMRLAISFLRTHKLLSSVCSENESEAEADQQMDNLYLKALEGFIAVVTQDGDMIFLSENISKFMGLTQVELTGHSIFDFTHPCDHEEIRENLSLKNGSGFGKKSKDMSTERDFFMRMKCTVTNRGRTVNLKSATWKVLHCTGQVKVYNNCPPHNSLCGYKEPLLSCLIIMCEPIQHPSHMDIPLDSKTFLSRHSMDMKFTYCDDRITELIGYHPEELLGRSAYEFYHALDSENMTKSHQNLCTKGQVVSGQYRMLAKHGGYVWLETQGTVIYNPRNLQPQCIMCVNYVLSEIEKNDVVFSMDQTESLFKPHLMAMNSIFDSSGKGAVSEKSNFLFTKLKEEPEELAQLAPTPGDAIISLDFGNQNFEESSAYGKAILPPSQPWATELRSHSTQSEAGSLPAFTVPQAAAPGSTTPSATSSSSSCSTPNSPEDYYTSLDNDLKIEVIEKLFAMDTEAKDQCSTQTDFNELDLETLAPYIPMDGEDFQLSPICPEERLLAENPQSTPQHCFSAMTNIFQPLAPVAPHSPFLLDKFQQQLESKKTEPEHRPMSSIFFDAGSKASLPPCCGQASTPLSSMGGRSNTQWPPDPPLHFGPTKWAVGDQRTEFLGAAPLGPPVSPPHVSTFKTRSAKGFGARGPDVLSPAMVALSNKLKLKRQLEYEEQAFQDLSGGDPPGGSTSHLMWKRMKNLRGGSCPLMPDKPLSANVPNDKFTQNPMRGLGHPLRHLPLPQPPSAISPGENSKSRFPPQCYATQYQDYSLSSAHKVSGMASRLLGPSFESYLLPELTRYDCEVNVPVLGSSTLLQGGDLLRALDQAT

No constants are given. Whether binding was seen depends on the method and setting. In cells and extracts the contact can be indirect. Some binding calls cover weakened binding; strength is not graded here.

As to “HIF-1α (pcDNA3 HA-HIF-1α) (from UniProt Q16665 1-826)”, the binding result in assay [1] was “binds”.
“HIF-2α (pcDNA3 HA-HIF-2α) (from UniProt Q99814 1-870)”: the binding result in assay [2] is “binds”; in assay [3] it was “no binding”; in assay [1] it was “binds”.

These data come from article PMC6284737.
